{"source": "PubChem BioAssay AID1224826 (NIAID, 2016)", "aim": "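Knock-downs that raise or lower Tnf reporter signal after endotoxin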 (primary screen)", "system": "RAW264.7 G9 macrophages from mouse bearing reporters for p65 (GFP) and the Tnf promoter (mCherry)", "reagents": "siRNA pool against mouse genes, 100 nM", "time to read-out": "16 h of LPS stimulation, after 2 days of siRNA transfection", "treatment": "bacterial lipopolysaccharide (Salmonella minnesota R595), 10 ng/ml", "measured": "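Nuclear mCherry signal of the Tnf promoter reporter measured by imaging after background removal, scaled to each plate median and turned into robust z-scores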", "scale": "Tnf reporter robust z-score: higher = stronger Tnf promoter reporter signal after LPS", "active means": "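Called active when robust z-score is at most -1.3, matching the median of the Tlr4 knock-down control, or over 3; control wells and wells with under 50 cells never active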", "meaning of the calls": "active = Tnf reporter clearly lowered or raised; inactive = no clear change in Tnf reporter", "note": "The whole screen tested about 17,000 reagents; shown is a part drawn at random. About 1,110 of them (6.6%) count as active. 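Active means lowered or raised reporter signal; replicate intensities are raw and not normalised per plate.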 Further read-outs or replicates are left out here. Reagent sequences are not shown."}
{"target": "Mrps5 (mitochondrial ribosomal protein S5)", "Tnf reporter robust z-score": 0.34, "fewer than 50 cells in well": "enough cells in well", "activity call": "inactive"}
{"target": "Rxrg (retinoid X receptor gamma)", "Tnf reporter robust z-score": 1.24, "fewer than 50 cells in well": "enough cells in well", "activity call": "inactive"}
{"target": "Gabrg2 (gamma-aminobutyric acid type A receptor, subunit gamma 2)", "Tnf reporter robust z-score": -0.76, "fewer than 50 cells in well": "enough cells in well", "activity call": "inactive"}
{"target": "Tmem63b (transmembrane protein 63b)", "Tnf reporter robust z-score": -0.54, "fewer than 50 cells in well": "enough cells in well", "activity call": "inactive"}
{"target": "Trpm4", "Tnf reporter robust z-score": 0.1, "fewer than 50 cells in well": "enough cells in well", "activity call": "inactive"}
{"target": "Crb3 (crumbs family member 3)", "Tnf reporter robust z-score": 0.42, "fewer than 50 cells in well": "enough cells in well", "activity call": "inactive"}
{"target": "Ttc36 (tetratricopeptide repeat domain 36)", "Tnf reporter robust z-score": -0.54, "fewer than 50 cells in well": "enough cells in well", "activity call": "inactive"}
{"target": "Pex11b (peroxisomal biogenesis factor 11 beta)", "Tnf reporter robust z-score": -0.15, "fewer than 50 cells in well": "enough cells in well", "activity call": "inactive"}
{"target": "Vmn1r36 (vomeronasal 1 receptor 36)", "Tnf reporter robust z-score": 2.83, "fewer than 50 cells in well": "enough cells in well", "activity call": "inactive"}
{"target": "Or10g1b (olfactory receptor family 10 subfamily G member 1B)", "Tnf reporter robust z-score": 3.3, "fewer than 50 cells in well": "enough cells in well", "activity call": "active"}
{"target": "Gata5 (GATA binding protein 5)", "Tnf reporter robust z-score": -1.46, "fewer than 50 cells in well": "enough cells in well", "activity call": "active"}
{"target": "Or5ac24 (olfactory receptor family 5 subfamily AC member 24)", "Tnf reporter robust z-score": -0.03, "fewer than 50 cells in well": "enough cells in well", "activity call": "inactive"}
{"target": "Ca5b (carbonic anhydrase 5B)", "Tnf reporter robust z-score": -0.38, "fewer than 50 cells in well": "enough cells in well", "activity call": "inactive"}

2 entries already listed, sorted by “Tnf reporter robust z-score”, low to high.
{"target": "Gabrg2 (gamma-aminobutyric acid type A receptor, subunit gamma 2)", "Tnf reporter robust z-score": -0.76, "fewer than 50 cells in well": "enough cells in well", "activity call": "inactive"}
{"target": "Tmem63b (transmembrane protein 63b)", "Tnf reporter robust z-score": -0.54, "fewer than 50 cells in well": "enough cells in well", "activity call": "inactive"}

Additional entries follow.
{"target": "Hfe (homeostatic iron regulator)", "Tnf reporter robust z-score": 2.35, "fewer than 50 cells in well": "enough cells in well", "activity call": "inactive"}
{"target": "Or52m2 (olfactory receptor family 52 subfamily M member 2)", "Tnf reporter robust z-score": -0.85, "fewer than 50 cells in well": "enough cells in well", "activity call": "inactive"}
{"target": "Col6a6 (collagen, type VI, alpha 6)", "Tnf reporter robust z-score": -0.09, "fewer than 50 cells in well": "enough cells in well", "activity call": "inactive"}
{"target": "Cyp3a44 (cytochrome P450, family 3, subfamily a, polypeptide 44)", "Tnf reporter robust z-score": 0.03, "fewer than 50 cells in well": "enough cells in well", "activity call": "inactive"}
{"target": "Aldh4a1 (aldehyde dehydrogenase 4 family, member A1)", "Tnf reporter robust z-score": -1.74, "fewer than 50 cells in well": "enough cells in well", "activity call": "active"}
{"target": "Ift56 (intraflagellar transport 56)", "Tnf reporter robust z-score": 0.1, "fewer than 50 cells in well": "enough cells in well", "activity call": "inactive"}
{"target": "Grik5 (glutamate receptor, ionotropic, kainate 5 (gamma 2))", "Tnf reporter robust z-score": 0.48, "fewer than 50 cells in well": "enough cells in well", "activity call": "inactive"}
{"target": "Or8b9 (olfactory receptor family 8 subfamily B member 9)", "Tnf reporter robust z-score": -0.84, "fewer than 50 cells in well": "enough cells in well", "activity call": "inactive"}
